For the test, the target named is TAR DNA-binding protein of 43 kD (TDP-43), endogenous (human (endogenous in SH-SY5Y and U2OS)) (UniProt Q13148). In words: affinity purification with mass spectrometry; endogenous TDP-43 immunoprecipitated (mouse anti-TDP-43 on protein G Dynabeads) versus normal IgG from SH-SY5Y lysate under non-denaturing conditions (Pierce IP lysis buffer, 4°C, 18 h); LC-MS/MS, MaxQuant label-free; triplicate.

Sequences of proteins named here, by UniProt entry; tags and fusion partners are left off. Residues count along the entry.
UniProt Q13148: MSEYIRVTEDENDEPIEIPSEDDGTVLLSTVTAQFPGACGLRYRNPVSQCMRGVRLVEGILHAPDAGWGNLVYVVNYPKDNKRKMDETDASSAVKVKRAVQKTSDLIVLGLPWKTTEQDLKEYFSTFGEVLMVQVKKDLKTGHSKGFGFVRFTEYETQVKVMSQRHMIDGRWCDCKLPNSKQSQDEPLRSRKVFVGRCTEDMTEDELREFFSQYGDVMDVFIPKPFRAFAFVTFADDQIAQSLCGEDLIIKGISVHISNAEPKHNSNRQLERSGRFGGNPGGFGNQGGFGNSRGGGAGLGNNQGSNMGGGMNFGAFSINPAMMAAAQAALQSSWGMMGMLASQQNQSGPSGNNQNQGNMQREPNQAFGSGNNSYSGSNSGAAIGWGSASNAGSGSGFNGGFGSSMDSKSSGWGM
UniProt P67809: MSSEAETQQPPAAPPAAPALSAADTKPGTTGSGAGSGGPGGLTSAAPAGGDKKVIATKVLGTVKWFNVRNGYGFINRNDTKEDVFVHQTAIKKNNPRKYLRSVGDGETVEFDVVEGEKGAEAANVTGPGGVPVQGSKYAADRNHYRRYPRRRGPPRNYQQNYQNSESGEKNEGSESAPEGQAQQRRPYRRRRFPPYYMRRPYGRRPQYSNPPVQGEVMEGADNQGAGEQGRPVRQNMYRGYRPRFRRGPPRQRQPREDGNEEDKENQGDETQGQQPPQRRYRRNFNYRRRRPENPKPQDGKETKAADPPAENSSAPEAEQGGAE
UniProt Q07021, residues 74-282: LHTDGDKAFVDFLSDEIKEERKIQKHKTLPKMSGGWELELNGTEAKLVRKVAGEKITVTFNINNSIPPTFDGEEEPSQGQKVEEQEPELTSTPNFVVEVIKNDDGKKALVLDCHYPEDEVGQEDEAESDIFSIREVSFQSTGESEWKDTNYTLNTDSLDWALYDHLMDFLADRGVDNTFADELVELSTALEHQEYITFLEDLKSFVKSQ

Results are given in words; binding and its absence hold for the method and conditions named. Binding seen in cells or lysates may run through a third protein. Here binding means that the protein was enriched with, or labelled near, the bait; the list need not be complete.

With “YBX1, endogenous (from UniProt P67809 1-324)”, the binding entry is listed as “binds”.

For “C1QBP, endogenous (from UniProt Q07021 74-282)”, the binding entry was “binds”.

Source of the values: publication PMC12588883.
